Reference: PubChem BioAssay AID1159599 (NIAID, 2016)
The whole screen tested 756 reagents; below is an unselected part. Of all reagents, 130 (17%) are marked active. 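Calls are two-sided: actives include siRNAs that raised the Tnf reporter as well as ones that lowered it.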 The numbers tell different reagents against one gene apart. No sequences are given here. Not stated in the record: the amount of reagent.

Screen: 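Which TLR pathway genes are needed for LPS-driven Tnf promoter activity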
System: mouse RAW264.7 G9 macrophage reporter clone cells
Reagent: single siRNA against mouse genes
Timing: 48 to 72 h after siRNA transfection, LPS for the last 16 h
Conditions: LPS (Salmonella minnesota R595), 16 h before fixation; dose not stated
Read-out: 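Nuclear mCherry from a Tnf promoter reporter imaged after LPS, background removed, robust z-score from per-plate median and MAD, averaged over replicates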
Scale: Tnf reporter z-score: higher = stronger Tnf promoter reporter signal after LPS
Call rule: 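Active when the replicate-mean Tnf reporter z-score is about -1.5 or lower, or about 1.5 or higher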
Meaning of the calls: active = strong change either way; inactive = little change

Nfkbie #1 — Tnf reporter z-score, replicate mean = -0.879; Outcome = inactive
Nfkbie #2 — Tnf reporter z-score, replicate mean = -1.06; Outcome = inactive
Nfkbie #3 — Tnf reporter z-score, replicate mean = 0.428; Outcome = inactive
Nfkbie #4 — Tnf reporter z-score, replicate mean = -0.487; Outcome = inactive
Nfkbie #5 — Tnf reporter z-score, replicate mean = -0.277; Outcome = inactive
Nfkbie #6 — Tnf reporter z-score, replicate mean = 0.361; Outcome = inactive
Cyld #1 — Tnf reporter z-score, replicate mean = 1.55; Outcome = active
Cyld #2 — Tnf reporter z-score, replicate mean = -0.717; Outcome = inactive
Cyld #3 — Tnf reporter z-score, replicate mean = -0.424; Outcome = inactive
Cyld #4 — Tnf reporter z-score, replicate mean = 0.89; Outcome = inactive
Cyld #5 — Tnf reporter z-score, replicate mean = 1.97; Outcome = active
Cyld #6 — Tnf reporter z-score, replicate mean = 1.46; Outcome = inactive
Traf3 #1 — Tnf reporter z-score, replicate mean = -0.156; Outcome = inactive
Traf3 #2 — Tnf reporter z-score, replicate mean = -0.919; Outcome = inactive
Traf3 #3 — Tnf reporter z-score, replicate mean = -0.547; Outcome = inactive
Traf3 #4 — Tnf reporter z-score, replicate mean = 0.583; Outcome = inactive
Traf3 #5 — Tnf reporter z-score, replicate mean = -1.03; Outcome = inactive
Traf3 #6 — Tnf reporter z-score, replicate mean = -0.0264; Outcome = inactive
Mapk3 #1 — Tnf reporter z-score, replicate mean = -0.128; Outcome = inactive
Mapk3 #2 — Tnf reporter z-score, replicate mean = 2.13; Outcome = active
Mapk3 #3 — Tnf reporter z-score, replicate mean = -0.749; Outcome = inactive
Mapk3 #4 — Tnf reporter z-score, replicate mean = 0.192; Outcome = inactive
Mapk3 #5 — Tnf reporter z-score, replicate mean = -1.3; Outcome = inactive
Mapk3 #6 — Tnf reporter z-score, replicate mean = 0.343; Outcome = inactive
Lbp #1 — Tnf reporter z-score, replicate mean = -0.0731; Outcome = inactive
Lbp #2 — Tnf reporter z-score, replicate mean = 0.116; Outcome = inactive
Lbp #3 — Tnf reporter z-score, replicate mean = -0.578; Outcome = inactive
Lbp #4 — Tnf reporter z-score, replicate mean = -0.55; Outcome = inactive
Lbp #5 — Tnf reporter z-score, replicate mean = 0.774; Outcome = inactive
Lbp #6 — Tnf reporter z-score, replicate mean = -0.433; Outcome = inactive
Mapk9 #1 — Tnf reporter z-score, replicate mean = -0.333; Outcome = inactive
Mapk9 #2 — Tnf reporter z-score, replicate mean = -1.05; Outcome = inactive
Mapk9 #3 — Tnf reporter z-score, replicate mean = -1.5; Outcome = active
Mapk9 #4 — Tnf reporter z-score, replicate mean = 0.935; Outcome = inactive
Mapk9 #5 — Tnf reporter z-score, replicate mean = -1.2; Outcome = inactive
Mapk9 #6 — Tnf reporter z-score, replicate mean = 1.15; Outcome = inactive
Ikbke #1 — Tnf reporter z-score, replicate mean = -1.37; Outcome = inactive
Ikbke #2 — Tnf reporter z-score, replicate mean = -0.853; Outcome = inactive
Ikbke #3 — Tnf reporter z-score, replicate mean = -1.37; Outcome = inactive
Ikbke #4 — Tnf reporter z-score, replicate mean = -1.92; Outcome = active
Ikbke #5 — Tnf reporter z-score, replicate mean = -0.247; Outcome = inactive
Ikbke #6 — Tnf reporter z-score, replicate mean = -1.57; Outcome = active
Map2k3 #1 — Tnf reporter z-score, replicate mean = -0.409; Outcome = inactive
Map2k3 #2 — Tnf reporter z-score, replicate mean = 0.0732; Outcome = inactive
Map2k3 #3 — Tnf reporter z-score, replicate mean = -0.0163; Outcome = inactive
Map2k3 #4 — Tnf reporter z-score, replicate mean = -0.652; Outcome = inactive
Map2k3 #5 — Tnf reporter z-score, replicate mean = -1.31; Outcome = inactive
Map2k3 #6 — Tnf reporter z-score, replicate mean = 1.5; Outcome = active

Reprinted from the entries so far for reference:
Cyld #6 — Tnf reporter z-score, replicate mean = 1.46; Outcome = inactive
Traf3 #1 — Tnf reporter z-score, replicate mean = -0.156; Outcome = inactive
Traf3 #2 — Tnf reporter z-score, replicate mean = -0.919; Outcome = inactive
